{
  "source": "the supplement of paper PMC8728848",
  "binders": {"B1": {"name": "truncCC1G-10077 (Coprinopsis cinerea) (protein)", "chain": "MHHHHHHHHPLPSPGPGWVLIQNGGTGKFLCSTPSGDIGTADGPETVYDYSVQWRFIQREYTGVYHVVNRATGAYLRQIGTSMPSIGLAEENDDELKDWWMLETYDNSEIGLASIISRWTGNVLDHYGGVSVQALDNNTENSYRSWAIIPARDWLTSFSLVNGQGGLCLAAQYAREETRLSTTANVNDFHAQWVFRKPSGSSGYTIQNKYNNHYVGGTSARWELVVCCNKYFGIRNTSTQKYLAIEDGQVTFQDQDMTDRKQCWELCSGRATDTSGNDYDLIYMDDDLLEVMIPWVGDKQGDLKHYIEKRATKKPPKDKGGWQLPAAGLIKKPKFNDIRQLLQELIEQWEWDVVNEEREQIQTLVSIDEAEARRLLGRRPHPDIVAAYQRSRSSTLFRIDRQGYFNIAGDRYVNIQGQYGDDSYFHIALPVGVRFGREQIRRFLRDSLDRSTSVTITPTTCKPPSGGPDYNRDPDSDGDNSWIKWTIAVVGTSAIKHSEL"}},
  "assay_in_all_cases": "glycan array binding signal (z-score within array); higher = stronger binding",
  "conditions_in_all_cases": "glycan notation: IUPAC condensed, linker removed",
  "key": {"[1]": {"target": "Neu5Ac(a2-6)Gal(b1-4)GlcNAc(b1-2)Man(a1-3)[Neu5Ac(a2-3)Gal(b1-4)GlcNAc(b1-2)Man(a1-6)]Man(b1-4)GlcNAc(b1-4)GlcNAc", "summary_of_the_method": "(§1)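 The binding signal is a Z-score computed within each array. Data were drawn from 3228 arrays in the Consortium for Functional Glycomics database, restricted to those with a known protein sequence. Scores were averaged over arrays of the same protein sequence at different concentrations or buffers, and over linkers, and negative values can be taken as non-binding.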"}, "[2]": {"target": "Neu5Ac(a2-6)Gal(b1-4)GlcNAc(b1-2)Man(a1-3)[Neu5Ac(a2-6)Gal(b1-4)GlcNAc(b1-2)Man(a1-6)]Man(b1-4)GlcNAc(b1-4)GlcNAc", "summary_of_the_method": "as §1"}, "[3]": {"target": "Neu5Ac(a2-6)Gal(b1-4)GlcNAc(b1-2)Man(a1-3)[Neu5Ac(a2-6)Gal(b1-4)GlcNAc(b1-2)Man(a1-6)]Man(b1-4)GlcNAc(b1-4)[Fuc(a1-6)]GlcNAc", "summary_of_the_method": "as §1"}, "[4]": {"target": "Neu5Ac(a2-6)Gal(b1-4)GlcNAc(b1-2)Man(a1-6)Man(b1-4)GlcNAc(b1-4)GlcNAc", "summary_of_the_method": "as §1"}, "[5]": {"target": "Neu5Ac(a2-6)Gal(b1-4)GlcNAc(b1-2)Man(a1-6)[Gal(b1-4)GlcNAc(b1-2)Man(a1-3)]Man(b1-4)GlcNAc(b1-4)GlcNAc", "summary_of_the_method": "as §1"}, "[6]": {"target": "Neu5Ac(a2-6)Gal(b1-4)GlcNAc(b1-2)Man(a1-6)[GlcNAc(b1-2)Man(a1-3)]Man(b1-4)GlcNAc(b1-4)GlcNAc", "summary_of_the_method": "as §1"}, "[7]": {"target": "Neu5Ac(a2-6)Gal(b1-4)GlcNAc(b1-2)Man(a1-6)[Man(a1-3)]Man(b1-4)GlcNAc(b1-4)GlcNAc", "summary_of_the_method": "as §1"}, "[8]": {"target": "Neu5Ac(a2-6)Gal(b1-4)GlcNAc(b1-2)[Neu5Ac(a2-6)Gal(b1-4)GlcNAc(b1-4)]Man(a1-3)[GlcNAc(b1-4)][Neu5Ac(a2-6)Gal(b1-4)GlcNAc(b1-2)[Neu5Ac(a2-6)Gal(b1-4)GlcNAc(b1-6)]Man(a1-6)]Man(b1-4)GlcNAc(b1-4)GlcNAc", "summary_of_the_method": "as §1"}, "[9]": {"target": "Neu5Ac(a2-6)Gal(b1-4)GlcNAc(b1-2)[Neu5Ac(a2-6)Gal(b1-4)GlcNAc(b1-4)]Man(a1-3)[GlcNAc(b1-4)][Neu5Ac(a2-6)Gal(b1-4)GlcNAc(b1-4)Man(a1-6)]Man(b1-4)GlcNAc(b1-4)GlcNAc", "summary_of_the_method": "as §1"}, "[10]": {"target": "Neu5Ac(a2-6)Gal(b1-4)GlcNAc(b1-2)[Neu5Ac(a2-6)Gal(b1-4)GlcNAc(b1-6)]Man(a1-6)[Neu5Ac(a2-6)Gal(b1-4)GlcNAc(b1-2)Man(a1-3)][GlcNAc(b1-4)]Man(b1-4)GlcNAc(b1-4)GlcNAc", "summary_of_the_method": "as §1"}, "[11]": {"target": "Neu5Ac(a2-6)Gal(b1-4)GlcNAc(b1-3)Gal(b1-3)GlcNAc", "summary_of_the_method": "as §1"}, "[12]": {"target": "Neu5Ac(a2-6)Gal(b1-4)GlcNAc(b1-3)Gal(b1-4)GlcNAc", "summary_of_the_method": "as §1"}, "[13]": {"target": "Neu5Ac(a2-6)Gal(b1-4)GlcNAc(b1-3)Gal(b1-4)GlcNAc(b1-2)Man(a1-3)[Neu5Ac(a2-6)Gal(b1-4)GlcNAc(b1-3)Gal(b1-4)GlcNAc(b1-2)Man(a1-6)]GalNAc", "summary_of_the_method": "as §1"}, "[14]": {"target": "Neu5Ac(a2-6)Gal(b1-4)GlcNAc(b1-3)Gal(b1-4)GlcNAc(b1-3)Gal(b1-4)GlcNAc", "summary_of_the_method": "as §1"}, "[15]": {"target": "Neu5Ac(a2-6)Gal(b1-4)GlcNAc(b1-3)Gal(b1-4)GlcNAc(b1-3)Gal(b1-4)GlcNAc(b1-2)Man(a1-3)[Neu5Ac(a2-6)Gal(b1-4)GlcNAc(b1-3)Gal(b1-4)GlcNAc(b1-3)Gal(b1-4)GlcNAc(b1-2)Man(a1-6)]GalNAc", "summary_of_the_method": "as §1"}, "[16]": {"target": "Neu5Ac(a2-6)Gal(b1-4)GlcNAc(b1-3)Gal(b1-4)GlcNAc(b1-3)GalNAc", "summary_of_the_method": "as §1"}, "[17]": {"target": "Neu5Ac(a2-6)Gal(b1-4)GlcNAc(b1-3)Gal(b1-4)GlcNAc(b1-3)[Neu5Ac(a2-6)Gal(b1-4)GlcNAc(b1-3)Gal(b1-4)GlcNAc(b1-6)]GalNAc", "summary_of_the_method": "as §1"}, "[18]": {"target": "Neu5Ac(a2-6)Gal(b1-4)GlcNAc(b1-3)Gal(b1-4)GlcNAc(b1-6)[Gal(b1-3)]GalNAc", "summary_of_the_method": "as §1"}, "[19]": {"target": "Neu5Ac(a2-6)Gal(b1-4)GlcNAc(b1-3)Gal(b1-4)[Fuc(a1-3)]GlcNAc(b1-3)Gal(b1-4)[Fuc(a1-3)]GlcNAc", "summary_of_the_method": "as §1"}, "[20]": {"target": "Neu5Ac(a2-6)Gal(b1-4)GlcNAc(b1-3)GalNAc", "summary_of_the_method": "as §1"}, "[21]": {"target": "Neu5Ac(a2-6)Gal(b1-4)GlcNAc(b1-3)[Neu5Ac(a2-6)Gal(b1-4)GlcNAc(b1-6)]GalNAc", "summary_of_the_method": "as §1"}, "[22]": {"target": "Neu5Ac(a2-6)Gal(b1-4)GlcNAc(b1-6)GalNAc", "summary_of_the_method": "as §1"}, "[23]": {"target": "Neu5Ac(a2-6)Gal(b1-4)GlcNAc(b1-6)[Gal(b1-3)GlcNAc(b1-3)]Gal(b1-4)Glc", "summary_of_the_method": "as §1"}, "[24]": {"target": "Neu5Ac(a2-6)Gal(b1-4)GlcNAc(b1-6)[Gal(b1-3)]GalNAc", "summary_of_the_method": "as §1"}, "[25]": {"target": "Neu5Ac(a2-6)Gal(b1-4)GlcNAc6S", "summary_of_the_method": "as §1"}, "Neu5Ac(a2-6)GalNAc": {"target": "Neu5Ac(a2-6)GalNAc", "summary_of_the_method": "as §1"}, "[26]": {"target": "Neu5Ac(a2-6)GalNAc(b1-4)GlcNAc", "summary_of_the_method": "as §1"}, "[27]": {"target": "Neu5Ac(a2-6)GalNAc(b1-4)GlcNAc6S", "summary_of_the_method": "as §1"}, "[28]": {"target": "Neu5Ac(a2-6)GlcNAc(b1-4)GlcNAc", "summary_of_the_method": "as §1"}, "[29]": {"target": "Neu5Ac(a2-6)GlcNAc(b1-4)GlcNAc(b1-4)GlcNAc", "summary_of_the_method": "as §1"}},
  "note": "Some of the results follow.",
  "data": [
    {"binder": "B1", "values": [
      {"measurement": "glycan array binding signal (z-score)", "setting": "[1]", "result": -0.628},
      {"measurement": "glycan array binding signal (z-score)", "setting": "[2]", "result": 0.197},
      {"measurement": "glycan array binding signal (z-score)", "setting": "[3]", "result": 0.685},
      {"measurement": "glycan array binding signal (z-score)", "setting": "[4]", "result": -0.572},
      {"measurement": "glycan array binding signal (z-score)", "setting": "[5]", "result": -1.13},
      {"measurement": "glycan array binding signal (z-score)", "setting": "[6]", "result": -0.42},
      {"measurement": "glycan array binding signal (z-score)", "setting": "[7]", "result": -0.343},
      {"measurement": "glycan array binding signal (z-score)", "setting": "[8]", "result": -0.318},
      {"measurement": "glycan array binding signal (z-score)", "setting": "[9]", "result": 0.129},
      {"measurement": "glycan array binding signal (z-score)", "setting": "[10]", "result": 0.06},
      {"measurement": "glycan array binding signal (z-score)", "setting": "[11]", "result": -0.962},
      {"measurement": "glycan array binding signal (z-score)", "setting": "[12]", "result": -0.51},
      {"measurement": "glycan array binding signal (z-score)", "setting": "[13]", "result": 0.292},
      {"measurement": "glycan array binding signal (z-score)", "setting": "[14]", "result": -0.137},
      {"measurement": "glycan array binding signal (z-score)", "setting": "[15]", "result": 1.79},
      {"measurement": "glycan array binding signal (z-score)", "setting": "[16]", "result": 2.07},
      {"measurement": "glycan array binding signal (z-score)", "setting": "[17]", "result": -0.092},
      {"measurement": "glycan array binding signal (z-score)", "setting": "[18]", "result": 0.521},
      {"measurement": "glycan array binding signal (z-score)", "setting": "[19]", "result": 0.063},
      {"measurement": "glycan array binding signal (z-score)", "setting": "[20]", "result": 0.54},
      {"measurement": "glycan array binding signal (z-score)", "setting": "[21]", "result": 0.773},
      {"measurement": "glycan array binding signal (z-score)", "setting": "[22]", "result": 3.21},
      {"measurement": "glycan array binding signal (z-score)", "setting": "[23]", "result": -0.462},
      {"measurement": "glycan array binding signal (z-score)", "setting": "[24]", "result": 0.215},
      {"measurement": "glycan array binding signal (z-score)", "setting": "[25]", "result": -0.367},
      {"measurement": "glycan array binding signal (z-score)", "setting": "Neu5Ac(a2-6)GalNAc", "result": -0.759},
      {"measurement": "glycan array binding signal (z-score)", "setting": "[26]", "result": -1.11},
      {"measurement": "glycan array binding signal (z-score)", "setting": "[27]", "result": -0.305},
      {"measurement": "glycan array binding signal (z-score)", "setting": "[28]", "result": -0.836},
      {"measurement": "glycan array binding signal (z-score)", "setting": "[29]", "result": -0.952}
    ]}
  ]
}
